Reference: PubChem BioAssay AID504467 (National Center for Advancing Translational Sciences (NCATS), 2011)
Among all 330,000 compounds or so, about 7,700 (2.3%) were called active. Inconclusive results, whose numbers are uncertain, are shown with a selection of clear calls. Calls come from the whole dose curve; as a rule, active = well fitted inhibition curve with a large enough effect; inconclusive = small, poorly fitted or top-dose-only effect, or effect the other way; inactive = flat fitted curve, though single readings scatter. Potencies of inconclusive entries are doubtful fits and often do not repeat.

Test: qHTS screen for small molecules that inhibit ELG1-dependent DNA repair in human embryonic kidney (HEK293T) cells expressing luciferase-tagged ELG1; note: nearly all actives have a fitted effect of over 55% in size
Details: HEK293T ELG1-luciferase reporter, luminescence, 16 h, DNA damage induced by 5-fluorouridine; activity change, negative = inhibition: at 46.1 µM (top of the series)
In short: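 Overnight (16 hr) co-exposure of 2,000 cells/well to 5-fluorouridine and compound at 37 °C preceded detection. Luciferase was quantified via ONE-Glo luminescence; loss of signal denotes inhibition.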
% is set by controls: 0 for no effect and ±100 for the full control effect; potency is the fitted concentration of half-maximal effect.

SMILES	Potency	activity change, negative = inhibition
O=C(Cn1c(=O)c2sccc2n(Cc2ccc([N+](=O)[O-])cc2)c1=O)NCCc1ccccc1	inconclusive: 16.4 µM [inhibitor, partial curve, poor fit]	–
COc1cc(NC(=O)c2ccc(COc3ccccc3Br)o2)cc(OC)c1OC	inconclusive: 20.6 µM [inhibitor, partial curve, poor fit]	–
CC(C)(C)c1cnnn1-c1ccc(NC(=O)c2ccc(Br)o2)cc1	–	inactive: 3.9%
O=C1N=c2ccccc2=C1c1sc(Nc2cccc(O)c2)nc1O	–	inactive: 20.5%
O=C(COC(=O)CC1CCCC1)Nc1ccc(Cl)cc1	inconclusive: 6.51 µM [inhibitor, single point]	–
O=C(CN1C(=O)COc2ccccc21)N(Cc1ccc2c(c1)OCO2)CC1CCCO1 (stereo not drawn)	–	inactive: 1.75%
O=C(/C=C/c1c(F)cccc1Cl)c1ccc(F)cc1	inconclusive: 23.1 µM [activator, partial curve]	–
CN(Cc1ccccc1)c1nc2c(c(=O)[nH]c(=O)n2C)n1CCOc1ccccc1	inconclusive: 18.4 µM [inhibitor, single point]	–
S=C(Nc1ccc2cn[nH]c2c1)Nc1ccc(Cl)cc1Cl	–	inactive: -9.49%
Cc1ccc(SC[C@H](c2ccccc2)N2CCN(CC(C)C)CCC2=O)cc1	inconclusive: 18.3 µM [activator, partial curve]	–
O=C(NCC1CCCCC1)c1cc([N+](=O)[O-])ccc1Cl	inconclusive: 5.8 µM [activator, single point]	–
COc1cc(OC)cc(-c2nnc(SCC(=O)N(C(C)C)C(C)C)o2)c1	–	inactive: -12.7%
O=C1c2ccccc2C(=O)N1CCSC(=S)N1CCOCC1	inconclusive: 10.3 µM [activator, single point]	–
COc1ccc(/C=C/C(=O)N2CCNC(=O)C2)c(OC)c1	inconclusive: 18.3 µM [activator, partial curve]	–
O=C(CCCCCn1c(=S)[nH]c2cc3c(cc2c1=O)OCO3)N1CCN(C2CCCCC2)CC1	–	inactive: 21.2%
Cc1cccc(-n2cnc3cc(C(=O)N4CCCCC4)ccc32)c1	inconclusive: 18.4 µM [activator, partial curve]	–
COc1ccc(C(CNS(=O)(=O)c2ccc(F)cc2)N2CCN(C)CC2)cc1 (stereo not drawn)	–	inactive: -10.2%
Cc1ccc(CN2CCSc3ccc(C(=O)N4CCOCC4)cc32)cc1	–	inactive: 2.79%
Cc1cc(/C=N/O)c(C)n1-c1ccccc1	inconclusive: 20.6 µM [activator, single point]	–
O=c1c2nnn(-c3ccc(Br)cc3)c2ncn1Cc1ccccn1	–	inactive: 5.32%
CC(NC(=O)NC(=O)c1cccc([N+](=O)[O-])c1)C1CC1 (stereo not drawn)	inconclusive: 18.3 µM [activator, single point]	–
COc1ccc2[nH]c(C(=O)N/N=C/c3ccccc3OC)cc2c1	inconclusive: 14.6 µM [inhibitor, partial curve, poor fit]	–
COc1ccc(N2CCN(C(=O)CSc3nnc4c(C)cc5cc(C)ccc5n34)CC2)cc1	inconclusive: 23.1 µM [inhibitor, partial curve]	–

An excerpt from further up, for reference:
SMILES	Potency	activity change, negative = inhibition
Cc1ccc(CN2CCSc3ccc(C(=O)N4CCOCC4)cc32)cc1	–	inactive: 2.79%
Cc1cc(/C=N/O)c(C)n1-c1ccccc1	inconclusive: 20.6 µM [activator, single point]	–
O=c1c2nnn(-c3ccc(Br)cc3)c2ncn1Cc1ccccn1	–	inactive: 5.32%
CC(NC(=O)NC(=O)c1cccc([N+](=O)[O-])c1)C1CC1 (stereo not drawn)	inconclusive: 18.3 µM [activator, single point]	–
COc1ccc2[nH]c(C(=O)N/N=C/c3ccccc3OC)cc2c1	inconclusive: 14.6 µM [inhibitor, partial curve, poor fit]	–
COc1ccc(N2CCN(C(=O)CSc3nnc4c(C)cc5cc(C)ccc5n34)CC2)cc1	inconclusive: 23.1 µM [inhibitor, partial curve]	–

Next entries follow:

SMILES	Potency	activity change, negative = inhibition
Cc1cc(N/N=C/c2ccc(O)cc2O)nc(-c2ccccc2O)n1	active: 10.3 µM	–
CCCNC(=O)NC(=O)COC(=O)c1ccc(OC)c(S(=O)(=O)N2CCCc3ccccc32)c1	inconclusive: 25.9 µM [inhibitor, partial curve, poor fit]	–
CC(=O)Nc1ccc(N2CCOCC2)c(C(=O)Nc2cccc(C)c2)c1	–	inactive: 0.105%
O=C1OC(c2ccccc2)=C/C1=C/N1CCCCC1	inconclusive: 9.2 µM [activator, partial curve]	–
CCc1nc2ccc(C(=O)N3CCN(c4ccccc4F)CC3)cc2nc1CC	inconclusive: 32.6 µM [activator, partial curve, poor fit]	–
CC(C)c1ccc(/C=C2\SC(=O)N(CC(=O)NCCCn3ccnc3)C2=O)cc1	inconclusive: 14.6 µM [activator, partial curve]	–
CCCc1ccc(-c2ccc(F)c(N)c2)nc1	inconclusive: 0.291 µM [activator, full curve]	–
COC(OC)c1ccnc(-c2ccc(OC(C)=O)cc2)n1	inconclusive: 23.1 µM [activator, partial curve]	–
COc1ccc(C(C)=O)cc1CN1C(=O)NC(c2ccccc2)(c2ccccc2)C1=O	inconclusive: 29.1 µM [inhibitor, single point]	–
C/C(=N\NC(=O)c1ccc(Cl)cc1)c1cccc(NC(=O)c2cccnc2)c1	inconclusive: 2.91 µM [activator, partial curve, poor fit]	–
O=C1OC(Cc2ccccn2)C(O)=C1C1=NCCCN1 (stereo not drawn)	inconclusive: 18.4 µM [activator, partial curve]	–
CC(O)CNc1nc2sc3c(c2c(=O)n1Cc1ccco1)CCCCC3 (stereo not drawn)	inconclusive: 16.4 µM [inhibitor, single point]	–
O=C(N/N=C/c1ccccn1)c1cc(-c2ccc(Br)s2)[nH]n1	–	inactive: -9.16%
Cc1ccc(NC(=O)C2SC(=Nc3ccccc3)C(C(=O)Nc3ccc(Cl)cc3)=C2N)cc1 (stereo not drawn)	inconclusive: 32.6 µM [inhibitor, partial curve, poor fit]	–
COc1ccc(C(=O)CSc2nnc(COc3ccccc3)n2Cc2ccco2)cc1	inconclusive: 18.4 µM [inhibitor, single point]	–
COc1ccc(NS(=O)(=O)c2cccc(N/C(=N\S(=O)(=O)c3ccccc3)c3ccc(F)cc3)c2)cc1	inconclusive: 29.1 µM [inhibitor, single point]	–
CC(C)[C@@H](CO)NC(=O)c1ccc2c3n(nc2c1)-c1ccccc1CO3	inconclusive: 1.16 µM [activator, partial curve]	–
CCC1CC(C)(C(=O)Nc2ccc(S(N)(=O)=O)cc2)OC1=O (stereo not drawn)	inconclusive: 29.1 µM [activator, partial curve, poor fit]	–
CC(C)C1Nc2c(O)cc(Cl)c([N+](=O)[O-])c2C2C=CCC21 (stereo not drawn)	inconclusive: 20.6 µM [inhibitor, single point]	–
CN(C)c1nc(Nc2ccc(Cl)cc2)nc(OCC#N)n1	inconclusive: 18.4 µM [inhibitor, partial curve, poor fit]	–
CCN(CC)CCn1c(NCc2ccc3c(c2)OCO3)nc2ccccc21	–	inactive: -17.6%
O=C(Nc1ccccc1C(=O)N1CCCCC1)c1cc(F)c(F)cc1Cl	–	inactive: 17.9%
CS(=O)(=O)N1CCc2cc(-c3csc(NC(=O)Cc4cccs4)n3)ccc21	active: 5.8 µM	–

SMILES	Potency	activity change, negative = inhibition
CCOC(=O)COc1c(-c2ccc(OC)cc2)oc2ccccc2c1=O	inconclusive: 23.1 µM [inhibitor, partial curve, poor fit]	–
Cn1c(SCC(=O)C(C)(C)C)nnc1-c1ccc(F)cc1	inconclusive: 9.2 µM [activator, partial curve, poor fit]	–
Nc1ncccc1OCc1ccc(Br)cc1	inconclusive: 10.3 µM [activator, partial curve]	–
Cc1nc(N)nc(Nc2ccc(Cl)cc2)c1Br	inconclusive: 0.58 µM [activator, single point]	–
COc1ccc(-c2cc3nc(C)c(CCC(=O)NCc4ccco4)c(C)n3n2)c(OC)c1	inconclusive: 29.1 µM [inhibitor, single point]	–
O=C(NC1CCCc2ccccc21)C1CCN(C(=O)c2sccc2-n2cccc2)CC1 (stereo not drawn)	inconclusive: 18.4 µM [inhibitor, single point]	–
COC(=O)c1nn(C23CC4CC(CC(C4)C2)C3)c2c1C(=O)N(c1ccc(Br)cc1)C2=O	–	inactive: -7.67%
CC(C)Cc1nnc(NC(=O)CN2C(=O)c3ccccc3C2=O)s1	–	inactive: 5.72%
O=C(Nc1ccccc1N1CCCCC1)c1ccc(F)c(S(=O)(=O)N2CCOCC2)c1	active: 13 µM	–
CC1CCc2c(nc3sc4c(c3c2N)CCCC4)C1 (stereo not drawn)	inconclusive: 5.17 µM [activator, partial curve]	–
Cc1ccc(NC(=O)CN(Cc2ccco2)Cc2ccccc2O)cc1C	inconclusive: 7.3 µM [inhibitor, partial curve, poor fit]	–
N#Cc1ccccc1NS(=O)(=O)c1cc2c3c(c1)CCC(=O)N3CCC2	–	inactive: 6.44%
CC(Sc1ncn[nH]1)C(=O)Nc1ccc(Cl)cn1 (stereo not drawn)	inconclusive: 2.91 µM [activator, partial curve, poor fit]	–
Cc1ccsc1C(=O)NCCc1ccco1	inconclusive: 11.2 µM [activator, partial curve]	–
O=S(=O)(c1ccc2ccccc2c1)N1CCN(S(=O)(=O)N2CCCCC2)CC1	inconclusive: 29.1 µM [activator, single point]	–
CCOc1ccccc1NC(=O)c1ccc(NC(=O)c2ccco2)cc1	inconclusive: 16.4 µM [inhibitor, single point]	–
O=C(N/N=C/c1cccnc1)c1cc(O)c(O)c(O)c1	–	inactive: 16.4%
Cc1ccc(/C=N/NC(=O)CSc2nc3ccccc3c(=O)n2-c2ccccc2C)s1	inconclusive: 18.4 µM [inhibitor, single point]	–
CCCCCc1ccc(-c2cn(Cc3ccc(C(=O)c4ccccc4)cc3)nn2)cc1	inconclusive: 2.31 µM [activator, full curve]	–
CCc1ccc(C(=O)Nc2cccnc2Oc2ccc(Cl)cc2)cc1	inconclusive: 29.1 µM [inhibitor, single point]	–
N/C(=N\OC(=O)c1cccc([N+](=O)[O-])c1)c1ccccn1	inconclusive: 2.91 µM [activator, full curve]	–
CCc1nnc(NC(=O)CCC(=O)Nc2ccc(C)cc2)s1	–	inactive: 23%
